Reference: the supplement of paper PMC10849652
This is one part of the list.

The chains behind the UniProt entries cited, without tags or fusion partners. Where a name states a change or a piece, a line headed by the entry shows the natural chain unless it says otherwise.
UniProt P49321, whole entry, looked up: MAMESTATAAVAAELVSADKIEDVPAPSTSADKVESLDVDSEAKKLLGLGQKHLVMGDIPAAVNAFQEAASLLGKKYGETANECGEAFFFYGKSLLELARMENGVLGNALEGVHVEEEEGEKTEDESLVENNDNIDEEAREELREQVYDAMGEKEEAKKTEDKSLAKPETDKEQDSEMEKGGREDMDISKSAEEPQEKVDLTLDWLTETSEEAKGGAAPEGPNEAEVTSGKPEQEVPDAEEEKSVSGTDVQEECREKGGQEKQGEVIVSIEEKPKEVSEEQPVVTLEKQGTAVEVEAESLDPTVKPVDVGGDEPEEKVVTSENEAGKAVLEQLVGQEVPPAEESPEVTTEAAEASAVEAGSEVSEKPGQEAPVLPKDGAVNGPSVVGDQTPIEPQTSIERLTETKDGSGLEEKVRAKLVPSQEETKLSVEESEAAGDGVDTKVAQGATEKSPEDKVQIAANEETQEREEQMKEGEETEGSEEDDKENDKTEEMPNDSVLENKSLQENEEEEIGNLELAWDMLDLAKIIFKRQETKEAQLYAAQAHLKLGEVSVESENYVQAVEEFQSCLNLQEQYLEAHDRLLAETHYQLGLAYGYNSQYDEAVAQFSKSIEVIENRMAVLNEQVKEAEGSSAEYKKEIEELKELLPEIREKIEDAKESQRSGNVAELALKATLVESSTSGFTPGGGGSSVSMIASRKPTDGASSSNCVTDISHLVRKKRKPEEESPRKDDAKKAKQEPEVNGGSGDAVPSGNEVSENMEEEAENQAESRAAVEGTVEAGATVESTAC
UniProt Q96NT1: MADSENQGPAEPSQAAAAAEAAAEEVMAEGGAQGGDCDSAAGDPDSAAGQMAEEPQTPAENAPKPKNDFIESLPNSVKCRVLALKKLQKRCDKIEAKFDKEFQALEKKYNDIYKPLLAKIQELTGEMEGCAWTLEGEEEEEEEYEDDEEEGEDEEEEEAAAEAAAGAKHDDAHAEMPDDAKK
UniProt Q96RE7: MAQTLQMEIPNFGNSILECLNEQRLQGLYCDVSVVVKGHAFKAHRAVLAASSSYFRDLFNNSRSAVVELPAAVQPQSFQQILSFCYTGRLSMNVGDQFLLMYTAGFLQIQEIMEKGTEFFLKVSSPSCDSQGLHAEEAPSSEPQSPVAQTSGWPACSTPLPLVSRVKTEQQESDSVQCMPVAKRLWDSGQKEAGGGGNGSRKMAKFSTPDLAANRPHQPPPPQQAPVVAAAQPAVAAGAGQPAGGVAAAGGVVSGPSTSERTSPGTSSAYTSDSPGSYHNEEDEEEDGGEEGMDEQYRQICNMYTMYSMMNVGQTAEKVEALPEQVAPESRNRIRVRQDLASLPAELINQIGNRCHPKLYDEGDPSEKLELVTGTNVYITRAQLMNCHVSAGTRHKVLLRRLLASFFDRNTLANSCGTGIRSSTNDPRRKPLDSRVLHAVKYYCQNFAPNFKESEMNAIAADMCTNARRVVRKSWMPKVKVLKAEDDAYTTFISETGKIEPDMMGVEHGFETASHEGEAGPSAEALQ
UniProt P43490: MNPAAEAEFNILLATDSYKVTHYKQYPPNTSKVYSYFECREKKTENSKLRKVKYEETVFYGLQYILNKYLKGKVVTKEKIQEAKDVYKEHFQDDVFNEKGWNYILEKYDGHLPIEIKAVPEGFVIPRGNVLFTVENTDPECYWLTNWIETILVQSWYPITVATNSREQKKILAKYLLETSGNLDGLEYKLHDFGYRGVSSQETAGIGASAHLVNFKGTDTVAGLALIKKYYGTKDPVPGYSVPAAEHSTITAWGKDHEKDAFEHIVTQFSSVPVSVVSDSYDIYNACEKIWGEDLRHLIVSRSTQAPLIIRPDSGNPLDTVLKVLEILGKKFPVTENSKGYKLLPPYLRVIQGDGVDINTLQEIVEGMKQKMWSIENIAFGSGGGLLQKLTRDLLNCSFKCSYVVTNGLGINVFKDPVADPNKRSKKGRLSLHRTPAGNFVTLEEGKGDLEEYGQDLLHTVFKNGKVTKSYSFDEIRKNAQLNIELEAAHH
UniProt Q9Y6Q9, whole entry, looked up: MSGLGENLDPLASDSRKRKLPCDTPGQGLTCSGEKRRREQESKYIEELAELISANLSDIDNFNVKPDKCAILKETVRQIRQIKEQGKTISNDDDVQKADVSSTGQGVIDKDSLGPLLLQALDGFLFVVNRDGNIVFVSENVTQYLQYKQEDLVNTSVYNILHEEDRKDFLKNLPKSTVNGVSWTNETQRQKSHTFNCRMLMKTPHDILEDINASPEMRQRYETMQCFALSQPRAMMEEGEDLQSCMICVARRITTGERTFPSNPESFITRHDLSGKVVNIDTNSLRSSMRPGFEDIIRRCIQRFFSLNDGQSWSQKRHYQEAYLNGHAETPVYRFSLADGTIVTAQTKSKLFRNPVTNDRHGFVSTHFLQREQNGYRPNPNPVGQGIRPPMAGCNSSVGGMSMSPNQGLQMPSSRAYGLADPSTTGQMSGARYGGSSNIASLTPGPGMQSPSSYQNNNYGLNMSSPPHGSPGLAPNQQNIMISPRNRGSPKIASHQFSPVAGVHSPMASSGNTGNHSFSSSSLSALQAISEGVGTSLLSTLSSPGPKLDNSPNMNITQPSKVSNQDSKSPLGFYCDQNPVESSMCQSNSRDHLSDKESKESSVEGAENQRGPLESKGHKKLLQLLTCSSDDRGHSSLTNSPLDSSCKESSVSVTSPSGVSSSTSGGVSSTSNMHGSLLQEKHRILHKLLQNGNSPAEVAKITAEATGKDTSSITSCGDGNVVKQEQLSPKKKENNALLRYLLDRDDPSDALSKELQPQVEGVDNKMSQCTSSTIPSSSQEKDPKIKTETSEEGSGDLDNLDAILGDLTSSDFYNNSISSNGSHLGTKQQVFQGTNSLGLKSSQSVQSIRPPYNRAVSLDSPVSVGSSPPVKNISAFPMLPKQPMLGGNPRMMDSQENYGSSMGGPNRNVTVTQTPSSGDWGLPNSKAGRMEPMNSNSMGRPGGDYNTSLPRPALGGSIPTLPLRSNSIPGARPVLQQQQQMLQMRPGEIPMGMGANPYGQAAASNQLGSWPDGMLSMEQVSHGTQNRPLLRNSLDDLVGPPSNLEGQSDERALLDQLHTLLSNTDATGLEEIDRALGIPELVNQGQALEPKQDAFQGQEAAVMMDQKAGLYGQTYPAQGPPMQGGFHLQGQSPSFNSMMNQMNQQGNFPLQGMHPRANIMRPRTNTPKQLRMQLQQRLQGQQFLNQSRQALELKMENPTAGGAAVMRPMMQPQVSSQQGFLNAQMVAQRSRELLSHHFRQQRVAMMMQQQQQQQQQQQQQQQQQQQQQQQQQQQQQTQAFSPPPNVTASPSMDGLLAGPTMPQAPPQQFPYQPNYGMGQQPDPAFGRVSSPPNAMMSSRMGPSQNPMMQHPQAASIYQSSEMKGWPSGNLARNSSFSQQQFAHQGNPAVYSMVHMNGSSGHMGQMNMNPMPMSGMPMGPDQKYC
UniProt Q330K2: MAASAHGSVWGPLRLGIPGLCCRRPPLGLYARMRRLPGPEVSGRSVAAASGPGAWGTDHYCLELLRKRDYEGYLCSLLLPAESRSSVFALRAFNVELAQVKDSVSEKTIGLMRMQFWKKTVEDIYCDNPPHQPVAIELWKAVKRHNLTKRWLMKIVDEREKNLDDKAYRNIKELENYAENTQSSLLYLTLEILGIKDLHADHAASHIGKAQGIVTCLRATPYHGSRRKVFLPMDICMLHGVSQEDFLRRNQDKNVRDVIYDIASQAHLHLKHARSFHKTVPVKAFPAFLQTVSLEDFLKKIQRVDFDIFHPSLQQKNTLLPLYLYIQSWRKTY
UniProt Q8WUY8: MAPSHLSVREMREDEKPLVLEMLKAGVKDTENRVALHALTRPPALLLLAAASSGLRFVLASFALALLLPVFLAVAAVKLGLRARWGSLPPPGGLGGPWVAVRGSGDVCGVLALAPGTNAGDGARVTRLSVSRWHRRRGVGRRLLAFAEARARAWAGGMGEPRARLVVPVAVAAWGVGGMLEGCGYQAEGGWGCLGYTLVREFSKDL
UniProt P52849: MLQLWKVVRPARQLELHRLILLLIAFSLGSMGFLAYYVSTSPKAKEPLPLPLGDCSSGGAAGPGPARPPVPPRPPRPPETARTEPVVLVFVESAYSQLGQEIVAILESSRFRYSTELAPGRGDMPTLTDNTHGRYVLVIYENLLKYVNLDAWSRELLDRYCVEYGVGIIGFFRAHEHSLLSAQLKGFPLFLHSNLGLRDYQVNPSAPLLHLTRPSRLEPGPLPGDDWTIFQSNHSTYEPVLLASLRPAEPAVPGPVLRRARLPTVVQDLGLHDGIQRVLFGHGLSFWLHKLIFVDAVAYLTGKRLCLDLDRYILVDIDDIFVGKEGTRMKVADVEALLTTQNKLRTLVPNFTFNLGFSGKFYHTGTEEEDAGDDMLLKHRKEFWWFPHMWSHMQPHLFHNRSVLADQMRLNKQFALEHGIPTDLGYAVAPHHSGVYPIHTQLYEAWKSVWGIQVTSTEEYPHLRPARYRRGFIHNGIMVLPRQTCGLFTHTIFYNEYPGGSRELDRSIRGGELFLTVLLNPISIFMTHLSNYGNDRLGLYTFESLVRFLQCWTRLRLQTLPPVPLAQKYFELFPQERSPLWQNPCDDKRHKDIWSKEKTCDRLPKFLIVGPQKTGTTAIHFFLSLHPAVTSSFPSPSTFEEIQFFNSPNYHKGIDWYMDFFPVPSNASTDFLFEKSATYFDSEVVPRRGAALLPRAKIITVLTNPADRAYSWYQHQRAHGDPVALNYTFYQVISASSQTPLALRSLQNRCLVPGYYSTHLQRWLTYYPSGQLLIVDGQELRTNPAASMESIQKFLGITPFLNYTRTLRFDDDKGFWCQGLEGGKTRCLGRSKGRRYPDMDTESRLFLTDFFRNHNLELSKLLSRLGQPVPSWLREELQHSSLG
UniProt O60934: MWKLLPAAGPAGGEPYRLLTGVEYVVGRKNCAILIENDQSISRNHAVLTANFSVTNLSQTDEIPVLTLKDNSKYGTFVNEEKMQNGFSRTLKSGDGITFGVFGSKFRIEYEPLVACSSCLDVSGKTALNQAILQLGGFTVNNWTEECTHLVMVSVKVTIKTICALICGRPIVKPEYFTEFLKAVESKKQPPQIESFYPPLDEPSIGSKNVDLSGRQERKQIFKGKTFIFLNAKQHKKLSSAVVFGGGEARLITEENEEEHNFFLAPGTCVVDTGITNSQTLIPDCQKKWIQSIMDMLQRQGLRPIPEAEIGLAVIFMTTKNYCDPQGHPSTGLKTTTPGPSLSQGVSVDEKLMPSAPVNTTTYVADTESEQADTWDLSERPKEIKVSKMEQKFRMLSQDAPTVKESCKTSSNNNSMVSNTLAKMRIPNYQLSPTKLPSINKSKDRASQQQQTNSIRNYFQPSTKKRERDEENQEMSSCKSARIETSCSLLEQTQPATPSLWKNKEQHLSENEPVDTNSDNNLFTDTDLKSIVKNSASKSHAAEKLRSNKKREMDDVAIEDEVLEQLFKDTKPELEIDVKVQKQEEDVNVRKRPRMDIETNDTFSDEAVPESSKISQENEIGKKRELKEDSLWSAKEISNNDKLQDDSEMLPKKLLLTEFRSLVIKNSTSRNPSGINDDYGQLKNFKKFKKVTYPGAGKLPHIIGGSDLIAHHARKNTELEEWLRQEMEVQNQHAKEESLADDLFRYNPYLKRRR
UniProt Q9BRA0: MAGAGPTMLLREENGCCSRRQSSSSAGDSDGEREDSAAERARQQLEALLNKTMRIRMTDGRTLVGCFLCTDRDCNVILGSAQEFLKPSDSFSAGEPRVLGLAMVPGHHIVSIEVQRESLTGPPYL
UniProt Q16795, whole entry, looked up: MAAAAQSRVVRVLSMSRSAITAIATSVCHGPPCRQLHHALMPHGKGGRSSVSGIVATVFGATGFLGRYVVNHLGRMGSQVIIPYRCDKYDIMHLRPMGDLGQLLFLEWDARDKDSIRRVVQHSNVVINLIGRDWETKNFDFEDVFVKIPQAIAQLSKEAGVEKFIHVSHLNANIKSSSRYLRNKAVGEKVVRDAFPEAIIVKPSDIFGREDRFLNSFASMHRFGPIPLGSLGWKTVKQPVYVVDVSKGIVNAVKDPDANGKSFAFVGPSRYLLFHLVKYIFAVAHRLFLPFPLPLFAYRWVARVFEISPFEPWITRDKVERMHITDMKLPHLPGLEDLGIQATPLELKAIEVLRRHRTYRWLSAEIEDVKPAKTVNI

What was measured:
Assay in all cases: log2 fold change, soluble protein after heating vs DMSO (PISA); higher = thermal stabilisation; K562 cells, 10 uM, 30 min; active = over 0.2 and 3.5 SD of the protein, either way, in both replicates (recomputed)
[1] = compound: CS(=O)(=O)c1ccc(-c2cnc(N)c(C(=O)Nc3ccccc3)n2)cc1
Procedure, shortened: (§1)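 K562 cells at 2×10^6 cells/mL were treated with 10 μM compound for 30 min. Aliquots were heated for 3 min across 48°C-58°C, pooled, and extracted in PBS with 0.5% NP-40 at 4°C; soluble protein was the supernatant after 21,000xg for 90 min. Soluble protein was quantified by TMTpro 16plex LC-MS/MS with channel sums equalised, and reported as log2 fold change in thermal stability against DMSO controls, with values from duplicates.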

crizotinib = compound: C[C@@H](Oc1cc(-c2cnn(C3CCNCC3)c2)cnc1N)c1c(Cl)ccc(F)c1Cl [crizotinib]
Procedure, shortened: as §1

[2] = compound: C[C@@H]1COCCN1C2=NC(=NC(=C2)C3(CC3)S(=O)(=O)C)C4=C5C=CNC5=CC=C4
Procedure, shortened: as §1

[3] = compound: C[C@H](C1=CC=C(C=C1)C(=O)NC2=C3C=CNC3=NC=C2)N
Procedure, shortened: as §1

gandotinib = compound: Cc1cc(Nc2cc(CN3CCOCC3)c3nc(C)c(Cc4ccc(Cl)cc4F)n3n2)n[nH]1 [gandotinib]
Procedure, shortened: as §1

[4] = compound: Cc1cc(SCc2sc(-c3ccc(C(F)(F)F)cc3)nc2C)ccc1OCC(=O)O
Procedure, shortened: as §1

doramapimod = compound: Cc1ccc(-n2nc(C(C)(C)C)cc2NC(=O)Nc2ccc(OCCN3CCOCC3)c3ccccc23)cc1 [doramapimod]
Procedure, shortened: as §1

ispinesib = compound: Cc1ccc(C(=O)N(CCCN)[C@@H](c2nc3cc(Cl)ccc3c(=O)n2Cc2ccccc2)C(C)C)cc1 [ispinesib]
Procedure, shortened: as §1

bafetinib = compound: Cc1ccc(NC(=O)c2ccc(CN3CC[C@H](N(C)C)C3)c(C(F)(F)F)c2)cc1Nc1nccc(-c2cncnc2)n1 [bafetinib]
Procedure, shortened: as §1

[5] = compound: Cc1cccc(CC(=O)N2CCc3c2ccc(-c2cn(C)c4ncnc(N)c24)c3F)n1
Procedure, shortened: as §1

nilotinib = compound: Cc1cn(-c2cc(NC(=O)c3ccc(C)c(Nc4nccc(-c5cccnc5)n4)c3)cc(C(F)(F)F)c2)cn1 [nilotinib]
Procedure, shortened: as §1

[6] = compound: Cc1nc(Nc2n[nH]c3c2CN(C(=O)N[C@H](CN(C)C)c2ccccc2)C3(C)C)c2sccc2n1
Procedure, shortened: as §1

dasatinib = compound: Cc1nc(Nc2ncc(C(=O)Nc3c(C)cccc3Cl)s2)cc(N2CCN(CCO)CC2)n1 [dasatinib]
Procedure, shortened: as §1

[7] = compound: Cc1ncc(-c2ccnc(Nc3ccc(S(C)(=O)=O)cc3)n2)n1C(C)C
Procedure, shortened: as §1

[8] = compound: Cn1cc(-c2ccc3c(c2)CCN3C(=O)Cc2cccc(C(F)(F)F)c2)c2c(N)ncnc21
Procedure, shortened: as §1

[9] = compound: Cn1cc(-c2ccc3nnc(C(F)(F)c4ccc5ncccc5c4)n3n2)cn1
Procedure, shortened: as §1

tipifarnib = compound: Cn1cncc1[C@@](N)(c1ccc(Cl)cc1)c1ccc2c(c1)c(-c1cccc(Cl)c1)cc(=O)n2C [tipifarnib]
Procedure, shortened: as §1

mubritinib = compound: FC(F)(F)c1ccc(/C=C/c2nc(COc3ccc(CCCCn4ccnn4)cc3)co2)cc1 [mubritinib]
Procedure, shortened: as §1

duvelisib = compound: C[C@H](Nc1ncnc2nc[nH]c12)c1cc2cccc(Cl)c2c(=O)n1-c1ccccc1 [duvelisib]
Procedure, shortened: as §1

tozasertib = compound: Cc1cc(Nc2cc(N3CCN(C)CC3)nc(Sc3ccc(NC(=O)C4CC4)cc3)n2)n[nH]1 [tozasertib]
Procedure, shortened: as §1

Measured: log2 fold change

NASP (UniProt P49321)
inactive: [1] 0.005 | crizotinib 0.063 | [2] 0.045 | [3] -0.061 | gandotinib -0.066 | [4] 0.013 | doramapimod -0.053 | ispinesib 0.06 | bafetinib -0.036 | [5] 0.011 | nilotinib -0.013 | [6] -0.032 | dasatinib -0.027 | [7] 0 | [8] -0.02 | [9] 0.009 | tipifarnib -0.026 | mubritinib 0.026

NAP1L5 (UniProt Q96NT1)
inactive: [1] 0.003 | crizotinib 0.011 | [2] -0.162 | [3] 0.009 | duvelisib -0.042 | gandotinib -0.002 | tozasertib -0.025 | [4] -0.022 | doramapimod 0.106 | ispinesib 0.036 | bafetinib 0.019 | [5] -0.048 | nilotinib 0.066 | [6] 0.02 | dasatinib 0.069 | [7] -0.023 | [8] -0.097 | [9] 0.094 | tipifarnib -0.021 | mubritinib 0.069

NACC1 (UniProt Q96RE7)
inactive: [1] 0 | crizotinib 0.005 | [2] 0.082 | [3] -0.03 | gandotinib -0.129 | [4] 0.152 | doramapimod -0.064 | ispinesib -0.019 | bafetinib -0.03 | [5] -0.039 | nilotinib -0.165 | [6] -0.109 | dasatinib -0.198 | [7] -0.12 | [8] -0.041 | [9] 0.034 | tipifarnib -0.084 | mubritinib -0.03

NAMPT (UniProt P43490)
inactive: [1] -0.003 | crizotinib 0.076 | [2] 0.038 | [3] -0.041 | duvelisib 0.025 | gandotinib 0.006 | tozasertib -0.027 | [4] -0.041 | doramapimod -0.039 | ispinesib 0.02 | bafetinib -0.026 | [5] -0.039 | nilotinib -0.01 | [6] 0.009 | dasatinib 0.023 | [7] 0 | [8] 0 | [9] 0.023 | tipifarnib 0.047 | mubritinib 0.033

NCOA3 (UniProt Q9Y6Q9)
inactive: [1] -0.008 | crizotinib -0.114 | [2] -0.3 | [3] -0.102 | gandotinib -0.13 | tozasertib 0.156 | doramapimod -0.08 | ispinesib 0.024 | bafetinib -0.129 | [5] 0.035 | nilotinib 0.049 | [6] 0.075 | [7] -0.213 | [8] 0.013 | [9] 0.177 | tipifarnib 0.122

NDUFAF6 (UniProt Q330K2)
inactive: [1] -0.052 | crizotinib -0.197 | [2] 0.182 | [3] -0.025 | gandotinib -0.167 | [4] 0.027 | doramapimod -0.065 | ispinesib -0.273 | bafetinib -0.178 | [5] 0.014 | nilotinib 0.01 | [6] -0.096 | dasatinib -0.064 | [7] 0.017 | [8] 0.01 | [9] 0 | tipifarnib -0.11 | mubritinib 0.028

NAT14 (UniProt Q8WUY8)
inactive: [1] 0.006 | crizotinib -0.228 | [2] -0.019 | [3] -0.119 | [4] 0 | doramapimod -0.02 | bafetinib -0.071 | nilotinib 0.003 | [6] -0.052 | dasatinib -0.066 | [7] 0 | [8] -0.06 | [9] -0.209 | tipifarnib 0.054 | mubritinib 0.118
active: ispinesib -0.418

NDST2 (UniProt P52849)
inactive: [1] 0.181 | crizotinib -0.143 | [2] 0 | tozasertib -0.042 | doramapimod 0.083 | ispinesib 0.011 | bafetinib -0.019 | nilotinib 0.104 | [6] 0.101 | [7] -0.027 | [9] -0.172 | mubritinib 0.022

NBN (UniProt O60934)
inactive: [1] 0.02 | crizotinib 0.009 | [2] 0.038 | [3] -0.063 | gandotinib -0.069 | [4] 0.116 | doramapimod -0.004 | ispinesib 0.008 | bafetinib -0.021 | [5] 0.031 | nilotinib 0.018 | [6] -0.198 | dasatinib -0.171 | [7] 0.048 | [8] 0.031 | [9] 0.064 | tipifarnib -0.016 | mubritinib 0.131

NAA38 isoform 2 (UniProt Q9BRA0)
inactive: [1] 0.012 | crizotinib -0.052 | [2] 0.099 | [3] 0.018 | gandotinib -0.004 | [4] 0.015 | doramapimod -0.02 | ispinesib -0.064 | bafetinib 0 | [5] -0.019 | nilotinib -0.128 | [6] 0.052 | dasatinib -0.051 | [7] -0.066 | [8] 0.028 | [9] -0.047 | tipifarnib -0.039 | mubritinib -0.03

NDUFA9 (UniProt Q16795)
active: mubritinib 0.223
inactive: [1] 0.007 | crizotinib -0.139 | [2] 0.079 | [3] 0.022 | gandotinib -0.115 | [4] 0.052 | doramapimod -0.031 | ispinesib -0.122 | bafetinib -0.019 | [5] 0.033 | nilotinib -0.056 | [6] 0.005 | dasatinib -0.127 | [7] 0.012 | [8] 0.002 | [9] -0.007 | tipifarnib -0.033
